Data from PubChem BioAssay (NCATS).
This list was built around the results that the source calls inconclusive (neither active nor inactive); the mix of calls is not that of the screen. Potencies beside an inconclusive call are fits to weak or partial responses and may not hold up. The source made the active and inactive calls. The call rests on the fitted dose curve; in most records, active means well fitted inhibition curve with a large enough effect; inconclusive means small, poorly fitted or top-dose-only effect, or another doubt; inactive means no such curve, though single readings can be large or run the other way.
Potency means the concentration at half of the fitted maximal effect.

Sequences of proteins named here, by UniProt entry; tags and fusion partners are left off. A change or cut given only in a name is not applied to a line headed by its entry.
UniProt Q9UNA4: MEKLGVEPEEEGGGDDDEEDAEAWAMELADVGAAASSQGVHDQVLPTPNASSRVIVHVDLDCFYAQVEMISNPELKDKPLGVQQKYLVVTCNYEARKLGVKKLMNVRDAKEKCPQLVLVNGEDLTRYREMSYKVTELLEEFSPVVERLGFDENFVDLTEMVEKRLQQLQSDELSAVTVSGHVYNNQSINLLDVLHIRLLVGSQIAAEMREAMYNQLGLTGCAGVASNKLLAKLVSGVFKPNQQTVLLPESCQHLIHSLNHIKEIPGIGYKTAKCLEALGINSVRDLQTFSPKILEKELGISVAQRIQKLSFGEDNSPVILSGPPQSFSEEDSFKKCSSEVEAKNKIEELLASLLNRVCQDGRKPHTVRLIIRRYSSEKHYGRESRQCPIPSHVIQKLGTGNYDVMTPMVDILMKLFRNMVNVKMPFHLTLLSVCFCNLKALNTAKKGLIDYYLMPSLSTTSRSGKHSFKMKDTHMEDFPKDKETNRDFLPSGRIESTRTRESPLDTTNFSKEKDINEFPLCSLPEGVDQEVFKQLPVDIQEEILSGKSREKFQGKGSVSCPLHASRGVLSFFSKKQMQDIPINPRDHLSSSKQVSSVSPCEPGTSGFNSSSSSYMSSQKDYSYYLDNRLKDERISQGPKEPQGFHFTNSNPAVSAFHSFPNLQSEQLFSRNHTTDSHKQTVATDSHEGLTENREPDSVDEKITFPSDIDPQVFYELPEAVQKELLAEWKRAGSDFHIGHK

These compounds were tested against DNA polymerase iota (Homo sapiens) (UniProt Q9UNA4) (assay: qHTS for Inhibitors of Polymerase Iota: Confirmatory Assay for Cherry-picked Compounds (AID 720496)). Settings: Pol iota primer extension, TAMRA/BHQ fluorescence.
In short: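 Enzyme (10 nM Pol iota) and compound sit together for 15 min at room temperature. Adding annealed primer/TAMRA-reporter/BHQ-2-template substrate, 50 nM final, starts the reaction, which is followed by fluorescence over 10 min.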
With `N=C1/C(=C\c2ccc(Br)o2)C(=O)N=C2SC(CC(=O)N3CCOCC3)=NN12` the Potency was inconclusive: 67 µM [inhibitor, partial curve].
With `Cc1ccc2nc3[nH]c(=O)[nH]c(=O)c3c(N)c2c1` the Potency was inconclusive: 75.2 µM [inhibitor, partial curve].
`COc1ccccc1CCNC(=O)c1cc(-c2ccncc2)nc2ccc(Br)cc12` was tested, and the Potency was inconclusive: 47.4 µM [inhibitor, partial curve].
In the case of `Cc1ccc(S(=O)(=O)NCc2ccc(C(=O)NCCc3ccc(S(N)(=O)=O)cc3)cc2)cc1`, the Potency is reported as inconclusive: 47.4 µM [inhibitor, partial curve].
For `COc1cc(/C=C2/C(=N)N3C(=NC2=O)SN=C3S(C)(=O)=O)ccc1OS(=O)(=O)c1ccc(C)cc1`, the Potency was inconclusive: 84.4 µM [inhibitor, single point].
In the case of `CCc1ccc(C(=O)c2cn(CC(=O)Nc3ccc4c(c3)OCO4)c3cc(OC)c(OC)cc3c2=O)cc1`, the Potency is reported as active: 42.3 µM.
For `CC(=O)Nc1cc(C(=O)CSc2nnc(C3CC3)n2C2CC2)ccc1O`, the Potency was inconclusive: 67 µM [inhibitor, partial curve].
For `CCCCn1c(NC(=O)c2ccccc2)c(C#N)c2nc3ccccc3nc21`, the Potency was active: 33.6 µM.
With `CCOc1ccc(C2CC(=O)c3c([nH]c(C(=O)OC)c3C)C2)cc1OC` (stereo not given) the Potency was inconclusive: 67 µM [inhibitor, partial curve].
With `COc1cc(NC(=O)c2noc3c2CCC3)c(OC)cc1Cl` the Potency was active: 37.7 µM.
For `Cc1cccc2sc(NC(=O)C3CCN(S(=O)(=O)c4cc([N+](=O)[O-])ccc4Cl)CC3)nc12`, the Potency was inconclusive: 59.7 µM [inhibitor, partial curve].
For `COc1ccc(CCNC(=O)c2cc(-c3ccco3)nc3ccccc23)cc1`, the Potency was active: 33.6 µM.
With `Cc1c(C(=O)O)sc2nc(CSc3ncc(C(F)(F)F)cc3Cl)[nH]c(=O)c12` the Potency was inconclusive: 75.2 µM [inhibitor, partial curve].
For `CC[n+]1c(/C=C/c2c[nH]c3ccccc23)ccc2cc(C)ccc21`, the Potency was inconclusive: 59.7 µM [inhibitor, partial curve].
In the case of `O=C1NC(=Nc2ccc(Cl)cc2)/C(=C/c2ccco2)S1`, the Potency is reported as inconclusive: 75.2 µM [inhibitor, partial curve].
`CCOC(=O)C1=C(c2ccc(OC)cc2)C(=O)c2ccccc2C1=O` was tested, and the Potency was active: 75.2 µM.
`CC1=C(C(=O)Nc2ccccc2C)C(c2ccc[nH]2)n2ncnc2N1` (stereo not given) was tested, and the Potency was active: 21.2 µM.
In the case of `O=C1Nc2ccccc2/C1=N/N=C/c1ccc(-c2ccc([N+](=O)[O-])cc2)o1`, the Potency is reported as inconclusive: 47.4 µM [inhibitor, partial curve].
`O=c1c(C(c2ccc(O)cc2)c2c(O)nc3n(c2=O)CCCS3)c(O)nc2n1CCCS2` was tested, and the Potency was inconclusive: 67 µM [inhibitor, partial curve].
In the case of `O=C(c1ccccc1)c1c2c(cc3sc4ccccc4[n+]13)-c1cccc3cccc-2c13`, the Potency is reported as active: 16.8 µM.
`COc1cccc2c(C)nc(Nc3nc(CSc4nnc(C)s4)cc(=O)[nH]3)nc12` was tested, and the Potency was inconclusive: 84.4 µM [inhibitor, single point].
In the case of `O=C(/C=C/c1ccccc1)NCCc1ccccc1`, the Potency is reported as inconclusive: 67 µM [inhibitor, partial curve].
With `O=C(CCc1ccc(S(=O)(=O)N2CCOCC2)cc1)N/N=C/c1ccc(O)c(O)c1O` the Potency was inconclusive: 29.9 µM [inhibitor, partial curve].
In the case of `C=C(C)C(=O)Nc1cccc(C2=NOC3(C2)C[C@@H](C(N)=O)N(C(=O)/C=C/C=C/C)C3)c1` (stereo not given in full), the Potency is reported as inconclusive: 42.3 µM [inhibitor, partial curve].
With `O=C(N/N=C\c1ccc(OC(=O)c2cccs2)cc1)c1ccc(Cl)cc1` the Potency was inconclusive: 67 µM [inhibitor, partial curve].
For `CC(C)[C@H](NC(=O)C1CC(=O)N(c2ccc3c(c2)OCO3)C1)C(=O)NC1CCCC1` (stereo not given in full), the Potency was inconclusive: 75.2 µM [inhibitor, partial curve].
For `C/C(N)=C(/C#N)C(=O)CSc1nnc(Nc2c(C)cccc2C)s1`, the Potency was inconclusive: 75.2 µM [inhibitor, partial curve].
For `Cc1ccc2nc3sc(C(=O)Nc4ccncc4)cc3cc2c1`, the Potency was inconclusive: 67 µM [inhibitor, partial curve].
With `O=C(CCN1C(=O)/C(=C/c2ccc(Cl)cc2)SC1=S)Nc1cccc(C(=O)O)c1` the Potency was inconclusive: 75.2 µM [inhibitor, partial curve].
For `NC(=O)Cc1ccc(C(=O)CSc2nnc(-c3ccncc3)n2C2CC2)s1`, the Potency was inconclusive: 59.7 µM [inhibitor, partial curve].
In the case of `Cc1cc(=O)oc2cc(OCC(=O)N/N=C/c3ccccc3O)ccc12`, the Potency is reported as inconclusive: 75.2 µM [inhibitor, partial curve].
`O=C1/C(=C\c2ccc(O)cc2)SC(=S)N1c1cccnc1` was tested, and the Potency was inconclusive: 67 µM [inhibitor, partial curve].
In the case of `COc1ccc(-c2nc3sc(CCNC(=O)C(=O)Nc4cccc(NC(C)=O)c4)c(C)n3n2)cc1`, the Potency is reported as inconclusive: 67 µM [inhibitor, partial curve].
For `C[C@@H]1O[C@@H](Oc2c(-c3cc(O)c(O)c(O)c3)oc3cc(O)cc(O)c3c2=O)[C@H](O)[C@H](O)[C@H]1O`, the Potency was inconclusive: 75.2 µM [inhibitor, single point].
`Cc1ccc(-c2nc3ccccc3o2)cc1NC(=S)NC(=O)/C=C/c1ccco1` was tested, and the Potency was inconclusive: 75.2 µM [inhibitor, partial curve].
`C/C(=C\C=C(C#N)C#N)c1cc(C#N)c(N)o1` was tested, and the Potency was inconclusive: 33.6 µM [inhibitor, full curve].
With `Cc1ccc2nc(/C(C#N)=C/c3ccc(-c4cccc([N+](=O)[O-])c4)o3)[nH]c2c1` the Potency was inconclusive: 75.2 µM [inhibitor, partial curve].
`O=C(NCc1cccs1)c1ccc2c(=O)n3nc(Nc4ccccc4)sc3nc2c1` was tested, and the Potency was inconclusive: 75.2 µM [inhibitor, partial curve].
`CCOC(=O)c1ccccc1NC(=O)c1ccc2nccnc2c1` was tested, and the Potency was inconclusive: 59.7 µM [inhibitor, partial curve].
For `C/C=C/C=C\C(=O)Nc1cccc(C2=NOC3(C2)C[C@H](C(N)=O)N(C(=O)/C=C/C)C3)c1` (stereo not given in full), the Potency was active: 33.6 µM.
